These results are taken from PMC6892437.

By UniProt entry, the sequences of proteins in these tests, tags left out. Where a name states a change or a piece, a line headed by the entry shows the natural chain unless it says otherwise.
UniProt O14672: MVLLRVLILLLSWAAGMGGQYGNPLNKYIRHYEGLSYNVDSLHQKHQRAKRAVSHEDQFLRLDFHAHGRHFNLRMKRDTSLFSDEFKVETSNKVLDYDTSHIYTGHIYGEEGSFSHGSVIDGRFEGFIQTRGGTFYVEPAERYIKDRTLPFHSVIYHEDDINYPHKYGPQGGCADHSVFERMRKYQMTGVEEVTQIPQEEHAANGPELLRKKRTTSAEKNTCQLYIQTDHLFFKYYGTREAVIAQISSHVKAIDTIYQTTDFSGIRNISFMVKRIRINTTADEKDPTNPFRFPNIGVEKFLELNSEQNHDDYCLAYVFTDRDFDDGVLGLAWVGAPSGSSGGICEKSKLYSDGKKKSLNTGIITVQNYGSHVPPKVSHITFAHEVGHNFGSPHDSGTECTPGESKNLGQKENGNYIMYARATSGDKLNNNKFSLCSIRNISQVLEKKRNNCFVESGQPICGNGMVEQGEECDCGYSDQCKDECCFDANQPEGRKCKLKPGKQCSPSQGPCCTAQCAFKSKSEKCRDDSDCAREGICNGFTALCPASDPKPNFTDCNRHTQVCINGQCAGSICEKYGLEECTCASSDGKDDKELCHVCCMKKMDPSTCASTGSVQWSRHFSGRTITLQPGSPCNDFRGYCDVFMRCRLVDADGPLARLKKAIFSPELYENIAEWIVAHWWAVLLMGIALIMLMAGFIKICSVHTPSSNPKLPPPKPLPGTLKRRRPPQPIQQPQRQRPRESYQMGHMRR
UniProt O95858: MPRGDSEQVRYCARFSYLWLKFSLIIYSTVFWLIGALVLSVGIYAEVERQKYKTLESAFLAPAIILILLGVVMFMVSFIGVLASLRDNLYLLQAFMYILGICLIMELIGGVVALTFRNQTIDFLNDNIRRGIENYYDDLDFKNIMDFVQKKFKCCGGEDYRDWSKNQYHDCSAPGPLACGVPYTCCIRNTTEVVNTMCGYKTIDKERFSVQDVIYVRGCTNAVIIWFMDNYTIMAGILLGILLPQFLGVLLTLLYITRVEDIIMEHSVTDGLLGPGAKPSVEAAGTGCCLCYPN

The target of assay [1] is ADAM10 (human (endogenous in U2OS and PC3)) (UniProt O14672). Description: co-IP; Tspan15-transfected U2OS cells, lysed in 1% Brij 97 with 1 mM CaCl2 and MgCl2; immunoprecipitation of ADAM10, Western blot. (Immunoblotting shows a protein as a band on a membrane.)
Assay [2] concerns the target T1, CD81 (human (endogenous in U2OS)) (UniProt P60033).
T1 sequence: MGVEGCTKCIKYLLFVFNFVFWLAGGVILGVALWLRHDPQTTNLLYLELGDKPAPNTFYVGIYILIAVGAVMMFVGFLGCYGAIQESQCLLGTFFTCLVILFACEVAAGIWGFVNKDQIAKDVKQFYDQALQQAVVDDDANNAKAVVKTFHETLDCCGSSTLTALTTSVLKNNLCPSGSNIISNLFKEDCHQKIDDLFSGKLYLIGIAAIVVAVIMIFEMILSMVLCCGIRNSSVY
Description: co-IP; U2OS cells transfected or not with Tspan5 or Tspan15, lysed in 1% Brij 97 with 1 mM CaCl2 and MgCl2 (30 mM Tris pH 7.4, 150 mM NaCl); immunoprecipitation of ADAM10 or CD81, Western blot.

Assay [3] deals with T2, endogenous Tspan5 (human (endogenous in U2OS and PC3)) (UniProt P62079).
T2 sequence: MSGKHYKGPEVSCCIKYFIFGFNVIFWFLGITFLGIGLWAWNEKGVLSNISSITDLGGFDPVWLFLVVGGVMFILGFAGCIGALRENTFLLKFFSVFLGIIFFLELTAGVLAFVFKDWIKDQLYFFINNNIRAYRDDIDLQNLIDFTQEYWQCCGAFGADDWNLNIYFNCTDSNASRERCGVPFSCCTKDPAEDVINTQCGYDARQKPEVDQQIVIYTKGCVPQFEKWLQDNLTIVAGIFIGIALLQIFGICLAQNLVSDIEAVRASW
The assay is described as follows: co-IP; PC3 cells (parental, Tspan5 KO, Tspan15 KO) lysed in 1% Brij 97 or digitonin; immunoprecipitation with anti-ADAM10 or anti-Tspan5 mAbs (TS5-2, TS5-1r), Western blot.

The target in assay [4] is ADAM10 (human (endogenous in U2OS and PC3)) (UniProt O14672). Description: co-IP; U2OS cells transfected or not with Tspan5 or Tspan15, lysed in 1% Brij 97 with 1 mM CaCl2 and MgCl2 (30 mM Tris pH 7.4, 150 mM NaCl); immunoprecipitation of ADAM10 or CD81, Western blot.
For assay [5] the target is unchanged. Description: co-IP; PC3 cells (parental, Tspan5 KO, Tspan15 KO) lysed in 1% Brij 97 or digitonin; immunoprecipitation with anti-ADAM10 or anti-Tspan5 mAbs (TS5-2, TS5-1r), Western blot.
The target in assay [6] is ADAM10 (human (endogenous in U2OS and PC3)), O14672. The assay is described as follows: co-IP; U2OS cells transfected or not with Tspan5 or Tspan15, lysed in 1% Brij 97 with 1 mM CaCl2 and MgCl2 (30 mM Tris pH 7.4, 150 mM NaCl); immunoprecipitation of ADAM10 or CD81, Western blot. The following applies: remark: other sources report otherwise.

Results are given in words; binding and its absence hold for the method and conditions named. In cells and extracts the contact can be indirect. Binding can be weak; no strength is given.

For the molecule “untagged Tspan15 (ectopically expressed) (from UniProt O95858 1-294)”, the binding result in assay [1] is on record as “binds”.
On to ADAM10 (from UniProt O14672), for which the binding result in assay [2] and in assay [3] was “binds” each time.

B1: endogenous Tspan5 (protein, UniProt P62079 1-268)
chain: MSGKHYKGPEVSCCIKYFIFGFNVIFWFLGITFLGIGLWAWNEKGVLSNISSITDLGGFDPVWLFLVVGGVMFILGFAGCIGALRENTFLLKFFSVFLGIIFFLELTAGVLAFVFKDWIKDQLYFFINNNIRAYRDDIDLQNLIDFTQEYWQCCGAFGADDWNLNIYFNCTDSNASRERCGVPFSCCTKDPAEDVINTQCGYDARQKPEVDQQIVIYTKGCVPQFEKWLQDNLTIVAGIFIGIALLQIFGICLAQNLVSDIEAVRASW
Turning to B1, the binding result in assay [4] is on record as “binds”; in assay [5] it was “binds”; in assay [1], “no binding (only in Tspan15-transfected cells)”.

B2: CD9, P21926 1-228 (protein)
chain: MPVKGGTKCIKYLLFGFNFIFWLAGIAVLAIGLWLRFDSQTKSIFEQETNNNNSSFYTGVYILIGAGALMMLVGFLGCCGAVQESQCMLGLFFGFLLVIFAIEIAAAIWGYSHKDEVIKEVQEFYKDTYNKLKTKDEPQRETLKAIHYALNCCGLAGGVEQFISDICPKKDVLETFTVKSCPDAIKEVFDNKFHIIGAVGIGIAVVMIFGMIFSMILCCAIRRNREMV
For the molecule B2, the binding result in assay [6] is “binds”.
